Data taken from ChEMBL document CHEMBL3988442, “University of Dundee, Small-Polar-MMV Screening Library” (2021).

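Whole-parasite assay of Trypanosoma brucei over 72 hours; the read-out is not stated. Tested at 30 µM. The record gives no direction; compounds that gave an IC50 in retests scored well above the rest, so higher reads as stronger inhibition. Values scatter widely below zero; nearly all retest evidence comes from the higher of the two concentrations used. Size under these conditions: about 64,000 compounds, about 940 of them at 50% or above in at least one test.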

The filed quantity is “Percent Effect” (%). The controls that fix the scale are not given in the record; negative values are as filed. Compounds were drawn at random from those tested, without regard to their results.

With Cn1cnc(S(=O)(=O)N2CCCc3cccc(F)c32)c1Cl the screen gave 47.31%. O=C(O)C(F)(F)F.O=C(O)C(F)(F)F.[H][C@]12CCN(CC(=O)N(C)C)[C@@]1([H])CC[C@H](COCc1cccnc1)O2 read -27.91%. With CC1c2ncc(COCc3ccccn3)n2CCN1C1CCCC1.O=C(O)C(F)(F)F.O=C(O)C(F)(F)F (configuration not stated) the screen gave -1.648%. With Cc1ccc(CN2CCn3cc(CN(C)Cc4ccco4)nc3C2)o1.O=C(O)C(F)(F)F.O=C(O)C(F)(F)F the screen gave 42.43%.

For CCn1ncc(CN2CCc3c(nc(-c4cccnc4)[nH]c3=O)C2)c1C the result was 24.52%. For COc1ccc(C(NCc2cccc(C#N)c2)C(C)C)cc1 (configuration not stated) the result was -7.641%. With CCC(C(=O)NC1(CN2CCOCC2)CCCC1)n1cccn1 (configuration not stated) the screen gave -21.46%. [H][C@@]12COC[C@]1(CNS(C)(=O)=O)CN(C(=O)c1ccncn1)C2 gave -61.28%.

With CNC(=O)c1cccc(NC(=O)CN2CCCN(S(C)(=O)=O)CC2)c1 the screen gave -5.896%. With [H][C@@]12C[C@@H](C)O[C@]1([H])CN(C(=O)c1ccccc1C)C2 the screen gave -43.27%. With CC(C)NC(=O)CC1COC2(CCN(Cc3ccsc3)CC2)C1.O=C(O)C(F)(F)F (configuration not stated) the screen gave -61.12%. Result for CC(=O)N1CCCN(Cc2cc(F)cc(Br)c2)CC1 was -28.58%.

Cc1ccc(CN2CC[C@@H](O)[C@@H]2Cc2cnn(C)c2)o1.O=C(O)C(F)(F)F gave -387.9%. Result for O=C(O)C(F)(F)F.O=C(O)C(F)(F)F.O=C(O)C(F)(F)F.[H][C@@]12CN(Cc3ccco3)CCC[C@]1(C(=O)OCC)CN(CCN(C)C)C2 was -2.476%. C/C=C(\C)CN1C[C@H](NC(=O)c2cnc(O)cn2)C[C@H]1C(=O)NCC read -22.45%. OC(COCc1ccco1)CN1CCc2c(ncn2C2CC2)C1 (configuration not stated) gave -0.8699%.

Result for COCCN1CCC(CNC(=O)c2cc(C)cc(C)c2)C1 (configuration not stated) was 28.41%. Result for O=C(NCCn1ccnc1)N1CCCC1c1ccsc1 (configuration not stated) was -3.39%. Cc1nn(C)c2c(N3CCN(C)CC3)nc(C3CC3)nc12 read -5.323%. Result for O=C(NS(=O)(=O)c1ccc(F)cc1)C1CCOc2ccccc21 (configuration not stated) was -24.86%.

Result for CCN1C(=O)CCCC12CCCN(C(=O)c1ccoc1C)C2 (configuration not stated) was -9.7%. CC(C)COC(=O)N1CCCN(C(C)c2nnc(CC(C)C)o2)CC1 (configuration not stated) read 12.97%. Cn1nc2c(cc1=O)CN(Cc1ccc(-n3cccn3)cc1)CC2 read 9.185%. For Clc1ccc2[nH]c3c(c2c1)CCCC3c1nn[nH]n1 (configuration not stated) the result was -46.88%.

With CC(C)(C)c1nc(CC(=O)NCCC(=O)Nc2ccncc2)cs1 the screen gave -5.892%. Cc1occc1C(=O)N1CCn2c(Cn3cncn3)cnc2C1C (configuration not stated) gave -41.34%. COc1cccc(COC(C)C(=O)NCc2nnc3n2CCC3)c1 (configuration not stated) gave -54.38%. For COCCNC(=O)NC1(c2nc(-c3ccncc3)no2)CCCCC1 the result was -7.624%.

Result for COc1cc(N2CC[C@@H](O)[C@@H]2Cc2ccccc2)ncn1 was -33%. Result for Cc1cccc(N2CCC(N3CCCC4(CN(C)C(=O)O4)C3)CC2)c1C (configuration not stated) was 8.24%. Result for COc1cc(OC)c(CNC(=O)NCc2ccc(C#N)cc2)c(OC)c1 was 3.554%. CCS(=O)(=O)c1ccccc1C(=O)NCc1ccnc(N(C)C)c1 gave 20.9%.

Cc1cc(NC(C)C(=O)N2CCN(c3ncccn3)CC2)ccc1F (configuration not stated) gave -55.65%. For CC(C)(C)c1ccc(C(=O)NCCCNC(=O)c2cnccn2)cc1 the result was 25.92%. O=C(O)C(F)(F)F.[H][C@@]12CN(Cc3sccc3C)C[C@@H](C(=O)NCCOC)[C@]1([H])CCO2 read -5.113%. CC(=O)N(C)c1nc(CN2CCCC2Cn2cncn2)cs1 (configuration not stated) read -5.117%.

CCc1ncc(C(=O)N2CCN(Cc3ncccc3C)CC2)cn1 read -50.31%. Fc1cc(Oc2ccc(C(F)(F)F)cn2)cc(F)c1CN1CCCC1 gave -14.36%.